These are yes or no findings as the source states them, for the method shown. Binding seen in cells or lysates may run through a third protein. Sequences can lack the tags named with a protein.

Sequences of proteins named here, by UniProt entry; tags and fusion partners are left off. A change or cut given only in a name is not applied to a line headed by its entry. Residues count along the entry.
UniProt Q00657, 30-2326: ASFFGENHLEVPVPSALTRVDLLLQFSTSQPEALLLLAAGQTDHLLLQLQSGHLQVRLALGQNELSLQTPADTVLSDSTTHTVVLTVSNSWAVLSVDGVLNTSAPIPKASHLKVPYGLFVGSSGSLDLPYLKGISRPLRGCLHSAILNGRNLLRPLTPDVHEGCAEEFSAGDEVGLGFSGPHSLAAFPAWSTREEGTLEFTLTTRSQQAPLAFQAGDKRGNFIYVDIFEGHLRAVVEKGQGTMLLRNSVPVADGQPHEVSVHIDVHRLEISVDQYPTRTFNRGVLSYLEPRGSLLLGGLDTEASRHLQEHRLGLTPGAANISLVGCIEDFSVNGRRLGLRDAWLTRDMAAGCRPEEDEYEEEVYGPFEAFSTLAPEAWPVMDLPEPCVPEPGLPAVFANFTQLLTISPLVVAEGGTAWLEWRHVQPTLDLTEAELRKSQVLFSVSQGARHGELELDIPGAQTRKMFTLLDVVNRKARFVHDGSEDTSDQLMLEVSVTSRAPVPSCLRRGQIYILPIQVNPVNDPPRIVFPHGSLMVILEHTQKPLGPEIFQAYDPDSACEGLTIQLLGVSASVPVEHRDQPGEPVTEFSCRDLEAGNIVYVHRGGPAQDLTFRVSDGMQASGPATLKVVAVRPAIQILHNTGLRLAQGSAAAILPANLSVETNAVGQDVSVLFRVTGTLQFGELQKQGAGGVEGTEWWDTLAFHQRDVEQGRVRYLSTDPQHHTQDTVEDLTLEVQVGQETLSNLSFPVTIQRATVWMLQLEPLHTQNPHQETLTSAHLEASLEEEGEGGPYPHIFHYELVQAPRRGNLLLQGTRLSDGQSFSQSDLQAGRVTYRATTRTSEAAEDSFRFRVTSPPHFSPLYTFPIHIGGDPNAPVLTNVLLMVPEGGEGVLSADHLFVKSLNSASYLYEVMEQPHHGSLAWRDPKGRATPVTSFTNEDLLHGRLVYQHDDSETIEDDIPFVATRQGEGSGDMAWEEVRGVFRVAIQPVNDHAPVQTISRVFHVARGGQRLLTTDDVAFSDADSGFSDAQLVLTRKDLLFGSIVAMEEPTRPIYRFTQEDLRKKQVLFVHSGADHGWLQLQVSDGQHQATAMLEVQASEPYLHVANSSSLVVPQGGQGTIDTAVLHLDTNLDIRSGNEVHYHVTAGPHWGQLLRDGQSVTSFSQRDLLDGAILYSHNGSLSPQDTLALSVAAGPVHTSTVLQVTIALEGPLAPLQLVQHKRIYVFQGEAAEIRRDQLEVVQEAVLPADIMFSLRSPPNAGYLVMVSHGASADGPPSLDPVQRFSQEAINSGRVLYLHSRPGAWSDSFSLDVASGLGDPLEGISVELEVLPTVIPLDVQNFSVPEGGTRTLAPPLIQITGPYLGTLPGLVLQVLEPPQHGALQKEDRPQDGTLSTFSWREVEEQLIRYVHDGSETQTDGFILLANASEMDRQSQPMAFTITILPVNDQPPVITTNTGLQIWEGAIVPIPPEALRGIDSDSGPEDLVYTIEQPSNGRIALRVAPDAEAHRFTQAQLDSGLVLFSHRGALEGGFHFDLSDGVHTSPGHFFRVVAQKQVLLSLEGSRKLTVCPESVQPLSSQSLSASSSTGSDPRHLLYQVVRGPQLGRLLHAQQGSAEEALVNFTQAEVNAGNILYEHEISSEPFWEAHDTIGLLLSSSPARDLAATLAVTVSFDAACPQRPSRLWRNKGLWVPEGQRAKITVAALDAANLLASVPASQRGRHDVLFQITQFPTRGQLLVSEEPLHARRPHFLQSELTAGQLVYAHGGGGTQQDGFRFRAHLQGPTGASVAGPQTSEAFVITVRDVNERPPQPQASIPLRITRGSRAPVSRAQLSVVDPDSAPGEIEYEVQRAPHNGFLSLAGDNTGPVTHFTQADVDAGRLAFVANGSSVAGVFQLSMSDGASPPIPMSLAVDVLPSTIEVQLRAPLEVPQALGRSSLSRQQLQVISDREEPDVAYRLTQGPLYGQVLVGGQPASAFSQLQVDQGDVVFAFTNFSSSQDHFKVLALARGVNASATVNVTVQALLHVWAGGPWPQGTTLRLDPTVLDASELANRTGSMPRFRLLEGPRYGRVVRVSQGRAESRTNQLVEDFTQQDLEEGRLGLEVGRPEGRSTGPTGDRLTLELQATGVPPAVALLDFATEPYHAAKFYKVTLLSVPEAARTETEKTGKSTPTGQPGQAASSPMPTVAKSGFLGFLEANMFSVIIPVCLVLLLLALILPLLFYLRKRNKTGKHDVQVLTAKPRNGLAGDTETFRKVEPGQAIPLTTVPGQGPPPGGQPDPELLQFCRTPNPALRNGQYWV

The assay has as its target NG2, full-length, overexpressed (UniProt Q00657). In words: co-IP; beads coupled to NG2-specific antibodies incubated with lysates of HEK293T cells overexpressing full-length NG2 and HA-tagged Stonin1 variants; immunoblot with NG2 and HA antibodies. In general terms: A western blot detects proteins with antibodies after separation by electrophoresis.

B1: Stonin1-haemagglutinin (HA), full-length (protein, UniProt Q8CDJ8 1-730)
chain: MYSTNPGSWVTFDDDPAFQSSQKRKDFSLETQGVCRPNGLKLTLPTLRDPPSTPSSASSTPLSSPMVDFYFSPGPPSNSPLSTPTKDFPGFPGIPKAGTHVLYPIPECSSSSAPTTAGGVGPPLLLTKPDCSPHVSLPSSHSHTQPTPTLGFTEDAGPQRVQSEARQFEYFQDHCAFSNPFWKDEGSASPFPLDSLASRKPFSPKDKEVPIGHKSLTQCSLDYICEKLEHLHSAETQDPLGDLSMQDPYAGDTVSFVPHSLFRSQPRAGWSFMLRIPEKKNMMSSRQWGPIFLKVLPGGILQMYYEKGLEKPFKEFQLDPHCRLSEPKLENFSMAGKIHTVKVEHVSYSEKRKYHAKTEVVHEPEVEQMLKLGSTEHRDFLEFLTTVEEELIKLPATAKPKNKSYEEQEICLDIQDSLWGKVTKEGQLVESAVVTQICCLCFLNGPAECFLALNDRELQKRDECYFEKEPEKKGIAILDYHFHTCVKAEEFEQSRIIKFVPLDACRFELMRFKTSYEAGELPFAVKSVVTVQGAYVELQAFVNMTPAAQGSPHAGALRSCNNIMIHFPVPAQWIKALWTRNLQRQKSLKAKMNRRACLGSLQEPESEPVIQVTVGSAKYESAYRAVVWKIDRLPDKNSSPDQPHCLSYKLELGSDQEVPSDWYPFATVQFSMLEACASRTEVRSLGVESDAQPQKHVCQRACYNIQVEIEKKWIQVDGEDADKTGGCVTQ
As to B1, the binding entry is listed as “no binding”.
